Data from the supplement of paper PMC10735217.
Values joined by “and” are separate entries in the source; they are usually repeats but may differ in a detail not shown here. Equal entries are not always repeated. Structures can show the parent of a compound that is named as a salt. The list shows a part of the results. Repeats in this data set agree poorly, so a single value says little.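 The human kidney-derived cells carry a stably integrated construct of eight TEAD-binding elements driving luciferase, read by luminescence in a drug-repurposing library screen. A compound counts as a hit when its signal is more than five robust Z scores above the plate mean.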

Tested on: HEK293A TEAD-LUC reporter
Experiment: TEAD-luciferase reporter activity (YAP activation), robust Z score vs plate; higher = stronger YAP/TEAD activation
Details: 24 h

Row | Structure (SMILES) | TEAD-luciferase reporter activity (compound concentration: 200 nM) | TEAD-luciferase reporter activity (compound concentration: 10 uM) | TEAD-luciferase reporter activity (compound concentration: 2 uM)
1 | O=C(C1CCCN1C(=O)c1ccccc1)N1CCC(N2CCOCC2=O)CC1 (stereo not drawn) | inactive: 1.06 | inactive: 0.575 | –
2 | CN(C)[C@@H]1C(=O)C(C(N)=O)C(=O)[C@@]2(O)C(=O)C3C(=O)c4c(O)cccc4[C@@](C)(O)[C@H]3[C@H](O)[C@@H]12 (stereo partly drawn) [Oxytetracycline] | – | – | inactive: -1.38
3 | CN(C)[C@@H]1C(=O)C(C(N)=O)C(=O)[C@@]2(O)C(=O)C3C(=O)c4c(O)cccc4[C@@](C)(O)[C@H]3[C@H](O)[C@@H]12 (stereo partly drawn) | inactive: -1.17 | inactive: 0.5 | –
4 | Clc1cccc(N2CCNCC2)c1 | inactive: -1.97 | inactive: -0.276 | inactive: -1.28
5 | C=CCONC1=Nc2ccc(Cl)cc2C(c2ccccc2Cl)=NC1 | inactive: -2.04 | inactive: -1.6 | inactive: -0.95
6 | O=[N+]([O-])O[C@H]1CO[C@H]2[C@@H]1OC[C@H]2O[N+](=O)[O-] [Isosorbide dinitrate] | – | – | inactive: 1.15
7 | O=[N+]([O-])O[C@H]1CO[C@H]2[C@@H]1OC[C@H]2O[N+](=O)[O-] [Isosorbide Dinitrate] | inactive: -1.58 | inactive: 0.537 | –
8 | CCC[C@@H]1CC(=O)N([C@@H](CC)C(N)=O)C1 [brivaracetam] | inactive: 0.872 | inactive: 0.0815 | inactive: 1.49
9 | O=S(=O)(c1ccccc1F)N1CCOc2c(N3CCNCC3)cccc21 | inactive: -0.279 | inactive: -1.11 | inactive: -0.133
10 | COc1cc2c(cc1O)CC1c3c(cc(O)c(OC)c3-2)CCN1C (stereo not drawn) [boldine] | inactive: -2.09 | inactive: 1.64 | inactive: -0.248
11 | Oc1ccc2c(c1)C(Cc1c[nH]cn1)CC2 (stereo not drawn) | inactive: 0.714 | inactive: 0.116 | inactive: -0.59
12 | O=C(c1ccc2c(c1)OCO2)N1CCC(C(=O)O)(c2ccccc2)CC1 | inactive: -0.968 | inactive: -0.656 | –
13 | COC1=C(C)C(=O)C2=C(C1=O)[C@@H](COC(N)=O)[C@]1(OC)[C@H]3N[C@H]3CN21 [Mitomycin A] | inactive: -0.534 | inactive: 0.0624 | inactive: -2
14 | c1ccc2c(c1)CC1NCC2c2ccccc21 (stereo not drawn) | inactive: -1.19 | inactive: 0.351 | inactive: 0.432
15 | C[C@H](Nc1ncnc2[nH]cnc12)c1nc2ccc(F)cc2c(=O)n1-c1ccccc1 [Acalisib] | inactive: -1.86 | inactive: -0.073 | inactive: -0.754
16 | CC(CCc1ccccc1)NC(C)C(O)c1cc(I)c(O)c(I)c1 (stereo not drawn) | inactive: -0.605 | inactive: 0.455 | inactive: -0.273
17 | N[C@@H](Cc1ccc(N(CCCl)CCCl)cc1)C(=O)O | inactive: -0.369 | inactive: -0.49 | –
18 | N[C@@H](Cc1ccc(N(CCCl)CCCl)cc1)C(=O)O [Melphaplex] | – | – | inactive: -1.26
19 | CN1CCC2C(c3ccccc3)Cc3c(ccc(O)c3O)C2C1 (stereo not drawn) | inactive: -1.77 | inactive: 0.431 | inactive: 1.22
20 | c1cnc2c(c1)CC1(CN3CCC1CC3)O2 (stereo not drawn) | inactive: -0.165 | inactive: -0.195 | inactive: -1.46

Row | Structure (SMILES) | TEAD-luciferase reporter activity (compound concentration: 200 nM) | TEAD-luciferase reporter activity (compound concentration: 10 uM) | TEAD-luciferase reporter activity (compound concentration: 2 uM)
21 | O=C(C1CCc2cc(Cl)c(Cl)cc21)N1CCSC[C@H]1CN1CCCC1 (stereo partly drawn) | inactive: -1.64 | inactive: -0.964 | inactive: -0.955
22 | N=C1NC(=O)C(c2ccccc2)(c2ccccc2)N1 | inactive: -1.32 | inactive: -0.464 | inactive: 0.061
23 | COC(=O)[C@@]12OC[C@]34[C@H]([C@@H](O)[C@@H]1O)[C@@]1(C)CC(=O)C(O)=C(C)[C@@H]1C[C@H]3OC(=O)[C@H](OC(=O)/C=C(\C)C(C)C)[C@@H]24 [Bruceantin] | inactive: 0.0972 | inactive: -1.42 | inactive: -1.85
24 | C[N+]1(CCCS(=O)(=O)O)[C@@H]2CC[C@H]1CC(OC(=O)C(CO)c1ccccc1)C2 (stereo partly drawn) | inactive: -1.28 | inactive: -0.753 | inactive: -0.449
25 | CCN1C(=O)CN2CCOC2(c2ccccc2F)c2cc(Cl)ccc21 (stereo not drawn) | inactive: 0.217 | inactive: -0.39 | inactive: -1.71
26 | COCC(=O)N1CCCC1C(=O)N1CCC(N2Cc3ccccc3C2=O)CC1 (stereo not drawn) | inactive: -2.31 | inactive: 0.413 | –
27 | CO[C@H]1CC=C2CCN3CCC4=C(CC(=O)OC4)[C@]23C1 [Dihydro-beta-erythroidine] | inactive: -1.65 | inactive: 3.27 | inactive: -0.283
28 | C[C@@H]1CN(Cc2ccc(F)cc2)CCN1C(=O)COc1ccc(Cl)cc1NC(N)=O | inactive: 0.0167 | inactive: 0.836 | inactive: -2.33
29 | CCN(CC)C(C)C=C(c1cccs1)c1cccs1 (stereo not drawn) [Diethylthiambutene] | inactive: -0.426 | inactive: 0.405 | inactive: 1.11
30 | CCOC(=O)C1N=C(c2ccccc2F)c2cc(Cl)ccc2N(C(=O)NC)C1=O (stereo not drawn) [ethyl carfluzepate] | inactive: -0.788 | inactive: 0.501 | inactive: -0.713
31 | C#CCN[C@H]1CCc2ccc(OC(=O)N(C)CC)cc21 | inactive: -0.958 | inactive: 0.626 | inactive: 0.717
32 | C/C=C1\CN2CC[C@H]1CC2[C@H](O)c1ccnc2ccc(OC)cc12 (stereo partly drawn) | inactive: -0.811 | inactive: 1.47 | inactive: -1.58
33 | COc1ccc(CC(=O)N2Cc3ccccc3CC3(CCCN3C)C2)cc1 (stereo not drawn) | inactive: -0.237 | inactive: 0.234 | –
34 | O=C(O)Cc1nc(-c2ccc(Cl)cc2)oc1-c1ccco1 | inactive: -1.2 | inactive: 2.28 | inactive: 0.334
35 | O=C(O)C1[O][Sb]2[O]C(=O)C([O]2)C(C(=O)O)[O][Sb]2[O]C(=O)C1[O]2 (stereo not drawn) [Potassium antimonyl tartrate sesquihydrate] | inactive: -0.591 | inactive: 0.954 | –
36 | CCC(CC)(CNC(=O)CCCO)c1cccc(OC)c1 | inactive: -1.14 | inactive: 1.57 | inactive: -0.361
37 | COc1ccc(CC(=O)N2Cc3ccccc3CC3(CCCCN3C)C2)cc1 (stereo not drawn) | active: 5.9 | active: 7.28 | –
38 | CNC1=Nc2ccc(Cl)cc2C(c2ccc[nH]2)=NC1 | inactive: -0.707 | inactive: 0.301 | inactive: -1.13
39 | COC[C@]12CNCC[C@@]1(c1ccc(Cl)c(Cl)c1)C2 | inactive: -2.68 | inactive: 0.118 | inactive: -1.69
40 | NC(=O)CNC1Cc2ccccc2C1 [indantadol] | inactive: -0.641 | inactive: 0.243 | inactive: -1.51

Row | Structure (SMILES) | TEAD-luciferase reporter activity (compound concentration: 200 nM) | TEAD-luciferase reporter activity (compound concentration: 10 uM) | TEAD-luciferase reporter activity (compound concentration: 2 uM)
41 | O=C1CN=C(c2ccccc2)c2c(sc3c2CCCC3)N1 [bentazepam] | inactive: -0.747 | inactive: -0.3 | inactive: 0.0198
42 | CCN(CC)CC(OC(=O)c1ccccc1)c1ccccc1 (stereo not drawn) | inactive: 2.67 | inactive: 2.52 | inactive: 0.048
43 | COc1ccc(C(=O)N2CCCC2=O)cc1 [aniracetam] | inactive: -2.61 | inactive: 0.626 | inactive: -1.21
44 | CCCN(CCC)C1Cc2cc(OCC)c(C(N)=O)cc2C1 (stereo not drawn) | inactive: -0.767 | inactive: -0.662 | inactive: -0.412
45 | CN1CCC2(CCN3CCc4c(oc5ccccc45)C3C2)N(C)C1=O (stereo not drawn) | inactive: 0.603 | inactive: -0.144 | inactive: -0.887
46 | CN1CC2CCCCC2(c2ccc(Cl)c(Cl)c2)C1 (stereo not drawn) | inactive: -0.803 | inactive: -1.13 | inactive: -1.25 and inactive: -0.508
47 | O=C(C1CCCN1C(=O)c1ccccc1F)N1CCC(N2Cc3ccccc3C2=O)CC1 (stereo not drawn) | inactive: -0.413 | inactive: 0.0877 | –
48 | CN(C)CCC1CN(C)C(=S)c2cccnc2O1 (stereo not drawn) | inactive: -0.41 | inactive: 2.4 | inactive: 0.381
49 | C#CCN1CCC2=C(C1)c1c(OC(=O)CCCN3CCCCC3)cc(C(C)C(C)CCCCC)cc1OC2(C)C (stereo not drawn) [Nabutan hyrochloride] | inactive: -0.724 | inactive: -0.732 | inactive: 0.891
50 | CCCN(CCC)C(=O)C1Cc2sc3c(c2C1)C(c1ccccc1Cl)=NCc1nnc(C)n1-3 (stereo not drawn) | inactive: -0.482 | inactive: -1.73 | inactive: 0.46
51 | CN(C)C(c1cccnc1)C1COCOC1 (stereo not drawn) [doxpicomine] | inactive: 0.0477 | inactive: -1.64 | inactive: 1.53
52 | CNc1cccc(NC(=O)NC2N=C(c3ccccn3)c3ccccc3N(CC(=O)C(C)(C)C)C2=O)c1 (stereo not drawn) [Netazepide] | inactive: 1.48 | inactive: 0.852 | inactive: -0.633
53 | O=C1CC[C@@]2(O)[C@H]3Cc4ccc(O)c5c4[C@@]2(CCN3CC2CC2)[C@H]1O5 [naltrexone] | – | – | inactive: -0.238
54 | O=C1CC[C@@]2(O)[C@H]3Cc4ccc(O)c5c4[C@@]2(CCN3CC2CC2)[C@H]1O5 [Naltrexone] | inactive: -0.837 | inactive: -0.322 | inactive: -0.893
55 | O=C(Nc1ccncc1)C(=O)c1cn(Cc2ccc(Cl)cc2)c2ccccc12 [indibulin, nanoparticle] | inactive: -0.457 | inactive: 3.7 | inactive: -1.59
56 | O=C(Nc1ccncc1)C(=O)c1cn(Cc2ccc(Cl)cc2)c2ccccc12 [indibulin] | – | – | inactive: -0.499
57 | CCOC(=O)c1ncn2c1CN(C)C(=O)c1c(Cl)cccc1-2 [Sarmazenil] | inactive: -0.506 | inactive: 3.98 | inactive: -1.07
58 | O=C1CN=C(c2ccccc2)c2cc(Cl)ccc2N1 [Nordiazepam] | inactive: 0.305 | inactive: 3.14 | –
